In ChEMBL document CHEMBL2311283, “Structural modifications to tetrahydropyridine-3-carboxylate esters en route to the discovery of M5-preferring muscarinic receptor orthosteric antagonists” (J Med Chem, 2013) one finds Ki data, which are given here for one compound.

Protein sequences, listed by entry. Tags and fused reporters are not part of them.
UniProt P20309, whole entry: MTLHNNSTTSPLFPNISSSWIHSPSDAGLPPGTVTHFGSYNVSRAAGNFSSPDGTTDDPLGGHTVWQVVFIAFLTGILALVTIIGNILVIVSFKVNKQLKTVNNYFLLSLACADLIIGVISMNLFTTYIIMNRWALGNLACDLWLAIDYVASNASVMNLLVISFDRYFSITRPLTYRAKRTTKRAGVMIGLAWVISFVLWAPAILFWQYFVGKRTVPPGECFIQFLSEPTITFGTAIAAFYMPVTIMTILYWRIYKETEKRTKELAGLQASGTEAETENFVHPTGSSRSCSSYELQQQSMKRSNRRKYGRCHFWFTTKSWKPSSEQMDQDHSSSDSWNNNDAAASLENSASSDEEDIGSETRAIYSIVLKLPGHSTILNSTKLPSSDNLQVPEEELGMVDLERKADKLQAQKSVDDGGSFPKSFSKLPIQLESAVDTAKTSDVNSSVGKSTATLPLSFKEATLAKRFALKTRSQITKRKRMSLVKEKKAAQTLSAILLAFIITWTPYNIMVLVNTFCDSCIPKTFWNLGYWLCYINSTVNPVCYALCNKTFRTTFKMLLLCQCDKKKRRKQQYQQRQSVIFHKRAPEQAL

Usually Ki stands for a dissociation constant, usually derived from enzyme kinetics or from competition with a known ligand.

This assay addresses Muscarinic acetylcholine receptor M3 (Homo sapiens, UniProt P20309). The assay is described as follows: Displacement of [3H]NMS from human M3 muscarinic receptor expressed in CHO-K1 cells. The format is cell-based. (In general: Displacement assays read how much labelled ligand stays bound in the presence of the test substance.)

Turning to `CN1[C@@H]2C[C@@H](OC(=O)[C@H](CO)c3ccccc3)C[C@H]1[C@@H]1O[C@@H]12` [SCOPOLAMINE], the affinity, expressed as Ki, was 6.5 nM.
